According to publication PMC5738045:
No constants are given. Whether binding was seen depends on the method and setting. Binding seen in cells or lysates may run through a third protein. Some results given as binding are weak or reduced against the parent protein; the word gives no strength.

Sequences of proteins named here, by UniProt entry; tags and fusion partners are left off. Residues count along the entry.
UniProt P60615, residues 22-95: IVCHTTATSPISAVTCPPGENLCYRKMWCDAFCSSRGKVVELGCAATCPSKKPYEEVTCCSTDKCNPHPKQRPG
UniProt P36544, residues 23-502: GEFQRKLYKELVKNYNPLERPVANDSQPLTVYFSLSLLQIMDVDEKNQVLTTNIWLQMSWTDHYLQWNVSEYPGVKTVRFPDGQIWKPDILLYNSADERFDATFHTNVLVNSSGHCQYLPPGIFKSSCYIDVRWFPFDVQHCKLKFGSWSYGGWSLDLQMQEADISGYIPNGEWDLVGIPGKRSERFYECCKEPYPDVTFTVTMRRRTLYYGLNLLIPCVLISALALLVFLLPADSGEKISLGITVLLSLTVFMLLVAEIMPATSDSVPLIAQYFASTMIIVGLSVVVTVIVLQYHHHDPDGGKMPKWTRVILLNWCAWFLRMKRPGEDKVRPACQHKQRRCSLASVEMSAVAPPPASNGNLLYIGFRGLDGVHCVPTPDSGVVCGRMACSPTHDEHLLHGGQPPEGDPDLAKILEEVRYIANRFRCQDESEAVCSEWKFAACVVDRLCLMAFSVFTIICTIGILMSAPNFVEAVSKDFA
UniProt P49582, residues 23-502: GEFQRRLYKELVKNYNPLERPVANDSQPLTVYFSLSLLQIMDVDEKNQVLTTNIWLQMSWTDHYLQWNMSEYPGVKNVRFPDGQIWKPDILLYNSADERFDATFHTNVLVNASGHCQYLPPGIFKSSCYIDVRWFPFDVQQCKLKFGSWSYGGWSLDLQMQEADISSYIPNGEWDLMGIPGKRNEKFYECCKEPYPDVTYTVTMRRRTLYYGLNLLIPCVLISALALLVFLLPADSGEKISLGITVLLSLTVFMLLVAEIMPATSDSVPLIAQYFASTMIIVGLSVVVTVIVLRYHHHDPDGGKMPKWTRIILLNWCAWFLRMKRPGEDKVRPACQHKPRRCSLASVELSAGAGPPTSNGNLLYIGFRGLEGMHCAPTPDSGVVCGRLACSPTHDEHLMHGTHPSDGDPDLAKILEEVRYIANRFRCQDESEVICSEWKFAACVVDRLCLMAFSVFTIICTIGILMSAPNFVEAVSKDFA

Target: α-bungarotoxin (UniProt P60615)
Assay: pull-down; only the target purified

| Substance | binding |
| --- | --- |
| α7 nicotinic acetylcholine receptor (human brain) (from UniProt P36544 23-502) | binds |
| α7 nicotinic acetylcholine receptor (mouse brain) (from UniProt P49582 23-502) | binds |
